Here are results for three molecules from article PMC7368280.

These are yes or no findings as the source states them, for the method shown. In cells and extracts the contact can be indirect. Here binding means that the protein was enriched with, or labelled near, the bait; the list need not be complete. For part of these data: No binding means not detected with the bait. Where a sequence is shown, tags or fusion partners need not be part of it.

For experiment [1], the target named is T1, SWN-GFP (gSWN-GFP) (Arabidopsis) (UniProt Q9ZSM8).
T1 sequence: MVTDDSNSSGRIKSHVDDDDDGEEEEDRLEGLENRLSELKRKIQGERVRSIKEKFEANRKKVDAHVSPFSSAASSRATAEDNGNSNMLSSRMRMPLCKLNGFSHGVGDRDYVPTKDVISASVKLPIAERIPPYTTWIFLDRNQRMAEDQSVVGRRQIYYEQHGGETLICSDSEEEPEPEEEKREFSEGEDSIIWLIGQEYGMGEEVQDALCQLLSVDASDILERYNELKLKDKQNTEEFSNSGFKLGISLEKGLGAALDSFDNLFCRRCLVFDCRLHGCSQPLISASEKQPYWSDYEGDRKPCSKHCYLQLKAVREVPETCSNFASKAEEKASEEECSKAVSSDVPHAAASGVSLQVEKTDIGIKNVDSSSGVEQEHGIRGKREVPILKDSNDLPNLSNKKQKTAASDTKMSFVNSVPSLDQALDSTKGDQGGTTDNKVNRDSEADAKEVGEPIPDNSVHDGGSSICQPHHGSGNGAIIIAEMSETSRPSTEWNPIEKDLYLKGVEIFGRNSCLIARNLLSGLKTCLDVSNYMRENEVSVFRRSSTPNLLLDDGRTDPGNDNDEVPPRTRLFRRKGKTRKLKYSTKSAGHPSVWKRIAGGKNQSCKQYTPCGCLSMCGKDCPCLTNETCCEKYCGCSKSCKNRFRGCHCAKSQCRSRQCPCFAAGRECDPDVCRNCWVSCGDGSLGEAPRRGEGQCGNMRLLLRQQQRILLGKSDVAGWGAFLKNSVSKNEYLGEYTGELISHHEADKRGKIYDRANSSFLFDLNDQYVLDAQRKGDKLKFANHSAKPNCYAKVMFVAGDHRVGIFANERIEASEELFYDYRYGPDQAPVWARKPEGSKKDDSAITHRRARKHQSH
Description: affinity purification with mass spectrometry; coIP-MS with GFP-tagged baits from Arabidopsis plants (gICU11-GFP icu11-3; 35S:GFP-CLF clf-50; gSWN-GFP), control 35S::GFP; two independent experiments; procedure in SI Appendix.

The target in experiment [2] is T2, ICU11-eGFP (gICU11-GFP in icu11-3) (Arabidopsis) (UniProt Q3ED68).
T2 sequence: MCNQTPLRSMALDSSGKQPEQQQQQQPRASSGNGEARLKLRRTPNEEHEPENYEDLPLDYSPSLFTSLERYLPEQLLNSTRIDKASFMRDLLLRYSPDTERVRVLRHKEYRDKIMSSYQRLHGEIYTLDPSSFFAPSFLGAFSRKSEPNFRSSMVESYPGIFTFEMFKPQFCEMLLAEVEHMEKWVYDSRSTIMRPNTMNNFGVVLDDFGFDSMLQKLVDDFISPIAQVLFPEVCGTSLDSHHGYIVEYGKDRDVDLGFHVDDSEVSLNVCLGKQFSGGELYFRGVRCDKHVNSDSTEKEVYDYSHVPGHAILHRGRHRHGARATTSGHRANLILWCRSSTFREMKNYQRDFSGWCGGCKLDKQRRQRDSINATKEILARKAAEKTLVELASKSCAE
Described as above.

For experiment [3], the target named is T3, GFP-CLF (35S:GFP-CLF in clf-50) (Arabidopsis) (UniProt P93831).
T3 sequence: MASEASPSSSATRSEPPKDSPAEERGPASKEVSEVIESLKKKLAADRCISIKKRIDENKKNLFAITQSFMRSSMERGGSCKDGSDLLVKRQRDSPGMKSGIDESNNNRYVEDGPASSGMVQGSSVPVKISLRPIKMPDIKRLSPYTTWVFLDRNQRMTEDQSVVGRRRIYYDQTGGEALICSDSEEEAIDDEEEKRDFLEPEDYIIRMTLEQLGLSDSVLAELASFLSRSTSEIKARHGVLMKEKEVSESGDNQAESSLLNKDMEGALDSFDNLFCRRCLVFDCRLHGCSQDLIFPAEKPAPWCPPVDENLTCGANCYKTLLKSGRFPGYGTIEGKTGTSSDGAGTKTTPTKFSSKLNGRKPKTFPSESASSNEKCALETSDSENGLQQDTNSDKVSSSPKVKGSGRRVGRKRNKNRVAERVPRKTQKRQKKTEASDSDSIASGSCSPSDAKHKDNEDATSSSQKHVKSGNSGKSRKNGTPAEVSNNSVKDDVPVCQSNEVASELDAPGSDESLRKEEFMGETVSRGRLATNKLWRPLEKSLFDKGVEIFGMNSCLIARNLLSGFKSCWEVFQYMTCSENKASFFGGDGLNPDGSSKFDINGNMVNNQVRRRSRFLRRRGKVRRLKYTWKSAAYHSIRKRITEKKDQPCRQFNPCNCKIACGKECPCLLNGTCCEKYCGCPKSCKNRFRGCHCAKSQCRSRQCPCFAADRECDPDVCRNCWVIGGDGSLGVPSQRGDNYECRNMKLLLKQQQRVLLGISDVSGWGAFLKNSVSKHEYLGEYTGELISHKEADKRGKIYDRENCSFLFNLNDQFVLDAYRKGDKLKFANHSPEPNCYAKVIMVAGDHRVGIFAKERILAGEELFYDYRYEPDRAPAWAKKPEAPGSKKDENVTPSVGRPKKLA
The description is as above.

Experiment [4] deals with T4, ICU11-3xHA (gICU11-HA in icu11-3) (Arabidopsis) (UniProt Q3ED68).
T4 sequence: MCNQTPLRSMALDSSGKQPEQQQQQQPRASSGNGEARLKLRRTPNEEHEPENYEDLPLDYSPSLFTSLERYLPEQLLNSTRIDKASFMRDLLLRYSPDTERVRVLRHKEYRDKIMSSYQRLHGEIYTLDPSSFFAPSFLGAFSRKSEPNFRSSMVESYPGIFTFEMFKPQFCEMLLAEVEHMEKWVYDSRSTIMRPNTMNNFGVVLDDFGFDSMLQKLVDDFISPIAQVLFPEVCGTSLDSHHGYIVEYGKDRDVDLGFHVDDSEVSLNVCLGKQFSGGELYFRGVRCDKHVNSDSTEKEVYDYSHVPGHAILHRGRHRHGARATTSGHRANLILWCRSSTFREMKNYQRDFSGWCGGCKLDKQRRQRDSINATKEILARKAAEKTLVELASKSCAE
The experiment in a line: affinity purification with mass spectrometry; coIP-MS with 3xHA-tagged ICU11 as bait from Arabidopsis plants (gICU11-HA icu11-3), control icu11-3; two independent experiments; procedure in SI Appendix.

B1: EMBRYONIC FLOWER 1 (EMF1), endogenous (protein, UniProt Q9LYD9 1-1096)
chain: MGSSIKINSISIDLAGAANEIDMVKCDHFSMRGFVAETRERDLRKCWPFSEESVSLVDQQSYTLPTLSVPKFRWWHCMSCIKDIDAHGPKDCGLHSNSKAIGNSSVIESKSKFNSLTIIDHEKEKKTDIADNAIEEKVGVNCENDDQTATTFLKKARGRPMGASNVRSKSRKLVSPEQVGNNRSKEKLNKPSMDISSWKEKQNVDQAVTTFGSSEIAGVVEDTPPKATKNHKGIRGLMECDNGSSESINLAMSGLQRRKSRKVRLLSELLGNTKTSGGSNIRKEESALKKESVRGRKRKLLPENNYVSRILSTMGATSENASKSCDSDQGNSESTDSGFDRTPFKGKQRNRRFQVVDEFVPSLPCETSQEGIKEHDADPSKRSTPAHSLFTGNDSVPCPPGTQRTERKLSLPKKKTKKPVIDNGKSTVISFSNGIDGSQVNSHTGPSMNTVSQTRDLLNGKRVGGLFDNRLASDGYFRKYLSQVNDKPITSLHLQDNDYVRSRDAEPNCLRDFSSSSKSSSGGWLRTGVDIVDFRNNNHNTNRSSFSNLKLRYPPSSTEVADLSRVLQKDASGADRKGKTVMVQEHHGAPRSQSHDRKETTTEEQNNDDIPMEIVELMAKNQYERCLPDKEEDVSNKQPSQETAHKSKNALLIDLNETYDNGISLEDNNTSRPPKPCSSNARREEHFPMGRQQNSHDFFPISQPYVPSPFGIFPPTQENRASSIRFSGHNCQWLGNLPTVGNQNPSPSSFRVLRACDTCQSVPNQYREASHPIWPSSMIPPQSQYKPVSLNINQSTNPGTLSQASNNENTWNLNFVAANGKQKCGPNPEFSFGCKHAAGVSSSSSRPIDNFSSESSIPALHLLSLLDPRLRSTTPADQHGNTKFTKRHFPPANQSKEFIELQTGDSSKSAYSTKQIPFDLYSKRFTQEPSRKSFPITPPIGTSSLSFQNASWSPHHQEKKTKRKDTFAPVYNTHEKPVFASSNDQAKFQLLGASNSMMLPLKFHMTDKEKKQKRKAESCNNNASAGPVKNSSGPIVCSVNRNPADFTIPEPGNVYMLTGEHLKVRKRTTFKKKPAVCKQDAMKQTKKPVCPPTQNA
Consider B1, for which the binding entry in experiment [1], in experiment [2], in experiment [3] and in experiment [4] was “binds” each time.

B2: VERNALIZATION5 (protein, UniProt Q9LHF5 1-602)
chain: MDSSSTKSKISHSRKTNKKSNKKHESNGKQQQQQDVDGGGGCLRSSWICKNASCRANVPKEDSFCKRCSCCVCHNFDENKDPSLWLVCEPEKSDDVEFCGLSCHIECAFREVKVGVIALGNLMKLDGCFCCYSCGKVSQILGCWKKQLVAAKEARRRDGLCYRIDLGYRLLNGTSRFSELHEIVRAAKSMLEDEVGPLDGPTARTDRGIVSRLPVAANVQELCTSAIKKAGELSANAGRDLVPAACRFHFEDIAPKQVTLRLIELPSAVEYDVKGYKLWYFKKGEMPEDDLFVDCSRTERRMVISDLEPCTEYTFRVVSYTEAGIFGHSNAMCFTKSVEILKPVDGKEKRTIDLVGNAQPSDREEKSSISSRFQIGQLGKYVQLAEAQEEGLLEAFYNVDTEKICEPPEEELPPRRPHGFDLNVVSVPDLNEEFTPPDSSGGEDNGVPLNSLAEADGGDHDDNCDDAVSNGRRKNNNDCLVISDGSGDDTGFDFLMTRKRKAISDSNDSENHECDSSSIDDTLEKCVKVIRWLEREGHIKTTFRVRFLTWFSMSSTAQEQSVVSTFVQTLEDDPGSLAGQLVDAFTDVVSTKRPNNGVMTSH
For the molecule B2, the binding result in experiment [1] was “binds”; in experiment [2], “no binding”; in experiment [3], “binds”; in experiment [4], “no binding”.

B3: VEL1 (protein, UniProt Q9SUM4 1-714)
chain: MDSSLDGAAGDSSKCSEMSVDEKRQLVYELSKQSHLAAEVLQAWSRQEILQILCAEMGKERKYTGLTKVKIIETLLKIVSEKNSGECEGKKRDSDCLPIQRNTKRQRKVDNPSRYVIPATNIVTSNNASGSCSSVNTKGESTTIYCKNLACRAVLRQEDSFCRRCSCCICRKYDDNKDPSLWLTCSSDPPFEGESCGFSCHLECAFNTEKSGLGKDKQSEGCCFYCVSCGKANSLLECWKKQLTIAKETRRVEVLCYRLFLVQKLLKSSTKYRNLCEVVDEAVKTLEADVGPLTGLPMKMGRGIVNRLHSGPDVQKLCSSALESLETIATTPPDVAALPSPRSSKMQQDCSYVLSNEISADTATTGSTKIRFEDVNATSLTVVLASNEIPSPPNIVHYSIWHRKVPEKDYPEKSTCTLFIPNTRFVVSGLAPASEYCFKVVSYSGTREMGVDEINVLTRSAEEGANCSSAVERSVSPLTNCSTLSSNPSSVEAESNNDYIVPKKPSSKNEDNNSPSVDESAAKRMKRTTDSDIVQIEKDVEQIVLLDDEEQEAVLDKTESETPVVVTTKSLVGNRNSSDASLPITPFRSDEIKNRQARIEISMKDNCNNGDHSANGGTESGLEHCVKIIRQLECSGHIDKNFRQKFLTWYSLRATSQEIRVVKIFIDTFIDDPMALAEQLIDTFDDRVSIKRSAVGGSGASAVVPSGFCMKLWH
In the case of B3, the binding result was “binds” in experiment [1], “no binding” in experiment [2], “binds” in experiment [3] and “no binding” in experiment [4].
